# Structures can show the parent of a compound that is named as a salt. The list shows a part of the results. Single values are uncertain here, since repeats match poorly. Positions of bridges follow the written chain, without caps; N, C: chain ends. Non-standard residues stand in square brackets, D forms with d. Residues, ends and D or L forms follow the SMILES beside them.
# System: Brugia pahangi adult female
# Experiment: motility inhibition on day 3 relative to DMSO vehicle; higher = more active
# Conditions: 10 µM; 3 days
row,Compound,motility inhibition on day 3 [%]
1,Cc1ccc(-c2ncc(Cl)cc2-c2ccc(S(C)(=O)=O)cc2)cn1 [Etoricoxib],18.4
2,CC(C)(Oc1ccc(Cl)cc1)C(=O)O [clofibric acid],< 0
3,CN1CCCN=C1COC(=O)C(O)(c1ccccc1)C1CCCCC1 (stereo unspecified) [oxyphencyclimine hydrochloride],12.5
4,CC(=O)N[C@@H](CCC(N)=O)C(=O)O [aceglutamide],< 0
5,CC(=O)NO [acetohydroxamic acid],< 0
6,O=C(O)C1CSCN1 (stereo unspecified) [timonacic],13.5
7,CC(C)(S)[C@@H](N)C(=O)O [penicillamine],< 0
8,CCC(=O)OCC(=O)[C@@]1(OC(=O)CC)[C@H](C)CC2C3C([C@@H](O)C[C@@]21C)[C@@]1(C)C=CC(=O)C=C1C[C@H]3Cl (stereo partly specified) [alclometazone dipropionate],3.25
9,O=C1O[C@H](CO)[C@@H](O)[C@H](O)[C@H]1O [gluconolactone],8.32
10,CCCCCCCCCCC[C@@H](C[C@@H]1OC(=O)[C@H]1CCCCCC)OC(=O)[C@H](CC(C)C)NC=O [orlistat],< 0
11,CCCN(CCC)C(=O)C(CCC(=O)O)NC(=O)c1ccccc1 (stereo unspecified) [Proglumide],24.1
12,CCN1C(=O)NC(c2ccccc2)C1=O (stereo unspecified) [ethotoin],3.38
13,CN1CCC(=C2c3ccccc3CC(=O)c3sccc32)CC1 [ketotifen fumarate],47.7
14,COc1ccccc1N1CCN(CC(O)COc2cccc3ccccc23)CC1 (stereo unspecified) [Naftopidil dihydrochloride],2.28
15,COc1cc(OC)c(C(=O)CCCN2CCCC2)c(OC)c1 [buflomedil hydrochloride],20.1
16,O.O.O.O.O=C([O-])CC(O)(CC(=O)[O-])C(=O)[O-].[Li+].[Li+].[Li+] [lithium citrate],5.55
17,N#CC(c1ccc(Cl)cc1)c1c(Cl)cc(-n2ncc(=O)[nH]c2=O)cc1Cl (stereo unspecified) [diclazuril],< 0
18,Cn1ccnc1S [methimazole],45.7
19,Oc1ccc(Cl)c2cccnc12 [cloxyquin],86.4
20,Nc1c(Br)cc(Br)cc1CN[C@H]1CC[C@H](O)CC1 [ambroxol hydrochloride],< 0
21,CCC(=O)c1ccc(O)cc1 [paroxypropione],< 0
22,CC(C)(Sc1cc(C(C)(C)C)c(O)c(C(C)(C)C)c1)Sc1cc(C(C)(C)C)c(O)c(C(C)(C)C)c1 [probucol],< 0
23,COc1cc(Cc2cnc(N)nc2N)cc(OC)c1OC [Trimethoprim],13.4
24,COCC1=C(C(=O)OC(C)OC(=O)OC(C)C)N2C(=O)[C@@H](NC(=O)/C(=N\OC)c3csc(N)n3)[C@H]2SC1 (stereo partly specified) [cefpodoxime proxetil],< 0
25,CCN(CC)CCOC(=O)C(c1ccccc1)C1CCCCC1 (stereo unspecified) [drofenine hydrochloride],< 0
26,CCCCC(CC)CN1CN(CC(CC)CCCC)CC(C)(N)C1 (stereo unspecified) [hexetidine],99.8

row,Compound,motility inhibition on day 3 [%]
1,CO[C@@]1(NC(=O)Cc2cccs2)C(=O)N2C(C(=O)O)=C(COC(N)=O)CS[C@@H]21 [cefoxitin sodium],< 0
2,CC(=O)c1ccc2c(c1)N(CCCN1CCC(CCO)CC1)c1ccccc1S2 [piperacetazine],35.4
3,CNCC[C@H](Oc1cccc2ccccc12)c1cccs1 [duloxetine hydrochloride],29.2
4,O=C(CCCN1CCC(O)(c2ccc(Br)cc2)CC1)c1ccc(F)cc1 [bromperidol],< 0
5,C=C[C@H]1CN2CC[C@H]1C[C@@H]2[C@@H](O)c1ccnc2ccc(OC)cc12 [quinidine gluconate],21
6,Cc1c(C(N)=O)cc([N+](=O)[O-])cc1[N+](=O)[O-] [dinitolmide],< 0
7,C[C@]12CC[C@H]3C(=CCc4cc(O)ccc43)[C@@H]1CCC2=O [equilin],0.00121
8,C[C@]12C=CC(=O)C=C1CC[C@@H]1[C@@H]2[C@@H](O)C[C@@]2(C)[C@H]1CC[C@]2(O)C(=O)COP(=O)(O)O [prednisolone sodium phosphate],5.5
9,N=C(N)N [guanidine carbonate],< 0
10,CN1C(C(=O)Nc2ccccn2)=C(O)c2sccc2S1(=O)=O [tenoxicam],6.75
11,N#Cc1ccc2[nH]cc(CCCCN3CCN(c4ccc5oc(C(N)=O)cc5c4)CC3)c2c1 [vilazodone hydrochloride],22.6
12,Cc1ncc([N+](=O)[O-])n1CC(O)CCl (stereo unspecified) [ornidazole],< 0
13,CN(C)c1ccc2nc3ccc(=[N+](C)C)cc-3sc2c1 [methylene blue],99.4
14,Cc1cccc(C)c1NC(=O)C1CCCCN1C (stereo unspecified) [mepivacaine hydrochloride],< 0
15,COc1ccc(C2C(=O)c3ccccc3C2=O)cc1 [anisindione],8.82
16,O=C(Nc1ccccc1)c1ccccc1O [salicylanilide],< 0
17,C#C[C@]1(O)CC[C@H]2[C@@H]3CCc4cc(OC5CCCC5)ccc4[C@H]3CC[C@@]21C [quinestrol],5.26
18,Cc1ccnc2c1NC(=O)c1cccnc1N2C1CC1 [nevirapine],17.7
19,CN(C)CCC=C1c2ccccc2CCc2ccccc21 [Amitriptyline hydrochloride],37.8
20,Cc1[nH]c(=O)c(C#N)cc1-c1ccncc1 [milrinone],< 0
21,CS(=O)(=O)c1ccc(C2=C(c3ccccc3)C(=O)OC2)cc1 [rofecoxib],10.3
22,Cn1c(=O)c2[nH]cnc2n(C)c1=O [Aminophylline],6.89
23,Oc1ccc(Cl)c2c1CCC2 [chlorindanol],< 0
24,CC(C)COCC(CN(Cc1ccccc1)c1ccccc1)N1CCCC1 (stereo unspecified) [Bepridil hydrochloride],56.6
25,C=NC(C(=O)NC1C(=O)N2C1SC(C)(C)C2C(=O)O)c1ccccc1 (stereo unspecified) [metampicillin sodium],4.56
26,CCC(CC)(CC(=O)Nc1cccc(/C=C/c2nc(C3CCC3)cs2)c1)C(=O)O [cinalukast],< 0

# Some of the entries so far, as tab-separated lines:
row	Compound	motility inhibition on day 3 [%]
7	C[C@]12CC[C@H]3C(=CCc4cc(O)ccc43)[C@@H]1CCC2=O [equilin]	0.00121
15	COc1ccc(C2C(=O)c3ccccc3C2=O)cc1 [anisindione]	8.82
17	C#C[C@]1(O)CC[C@H]2[C@@H]3CCc4cc(OC5CCCC5)ccc4[C@H]3CC[C@@]21C [quinestrol]	5.26
25	C=NC(C(=O)NC1C(=O)N2C1SC(C)(C)C2C(=O)O)c1ccccc1 (stereo unspecified) [metampicillin sodium]	4.56
26	CCC(CC)(CC(=O)Nc1cccc(/C=C/c2nc(C3CCC3)cs2)c1)C(=O)O [cinalukast]	< 0

# Going on with the list:

row,Compound,motility inhibition on day 3 [%]
1,NC(=O)c1ncn([C@@H]2O[C@H](CO)[C@@H](O)[C@H]2O)n1 [ribavirin],< 0
2,CCOC(=O)[C@H](CCc1ccccc1)N[C@@H](C)C(=O)N1[C@H](C(=O)O)C[C@@H]2CCC[C@@H]21 [ramipril],2.81
3,NS(=O)(=O)c1cc2c(cc1Cl)N=CNS2(=O)=O [Chlorothiazide],16.3
4,O=C(CCCl)NCc1ccccc1 [beclamide],13.1
5,CN[C@H](CC(C)C)C(=O)N[C@H]1C(=O)N[C@@H](CC(N)=O)C(=O)N[C@H]2C(=O)N[C@H]3C(=O)N[C@H](C(=O)N[C@H](C(=O)O)c4cc(O)cc(O)c4-c4cc3ccc4O)[C@H](O)c3ccc(c(Cl)c3)Oc3cc2cc(c3O[C@@H]2O[C@H](CO)[C@@H](O)[C@H](O)[C@H]2O[C@H]2C[C@](C)(N)[C@H](O)[C@H](C)O2)Oc2ccc(cc2Cl)[C@H]1O [vancomycin hydrochloride],26.6
6,CNS(=O)(=O)Cc1ccc2[nH]cc(CCN(C)C)c2c1 [sumatriptan succinate],3.77
7,CC(C)[C@@H]1NC(=O)[C@H](CCCCN)NC(=O)[C@@H](Cc2c[nH]c3ccccc23)NC(=O)[C@H](Cc2ccc(O)cc2)NC(=O)[C@@H](NC(=O)[C@H](N)Cc2ccccc2)CSSC[C@@H](C(=O)N[C@@H](Cc2c[nH]c3ccccc23)C(N)=O)NC1=O [Vapreotide acetate salt] (H-[dF]CY[dW]KVCW-NH2; disulfide 2-7),1.15
8,S=C1SCN(Cc2ccccc2)CN1Cc1ccccc1 [sulbentine],22.6
9,Cc1cc(C2CCCCC2)n(O)c(=O)c1 [ciclopirox olamine],95.1
10,COc1cc(C(=O)NS(=O)(=O)c2ccccc2C)ccc1Cc1cn(C)c2ccc(NC(=O)OC3CCCC3)cc12,6.41
11,O=C(O)c1cc(=O)c2ccccc2o1 [chromocarb],4.61
12,NS(=O)(=O)c1cc(C(=O)O)c(NCc2ccco2)cc1Cl [furosemide],37.2
13,N=C(N)NC(=O)c1nc(Cl)c(N)nc1N [Amiloride hydrochloride],< 0
14,COc1ccc(Cc2cnc(N)nc2N)cc1OC [diaveridine],< 0
15,CC(Cc1ccccc1)(NC(=O)CN)c1ccccc1 (stereo unspecified) [remacemide hydrochloride],2.04
16,CCCCC1=NC2(CCCC2)C(=O)N1Cc1ccc(-c2ccccc2-c2nnn[nH]2)cc1 [irbesartan],9.44
17,CC[C@H]1OC(=O)[C@H](C)[C@@H](O[C@H]2C[C@@](C)(OC)[C@@H](O)[C@H](C)O2)[C@H](C)[C@@H](O[C@@H]2O[C@H](C)C[C@H](N(C)C)[C@H]2O)[C@](C)(OC)C[C@@H](C)C(=O)[C@H](C)[C@@H](O)[C@]1(C)O [clarithromycin],0.273
18,O=C(Nc1ccc(C(=O)O)c(O)c1)c1ccccc1 [benzoylpas],28
19,CCCCOC(=O)c1ccc(N)cc1 [butamben],66.2
20,COC(=O)[C@@H]1[C@H]2C[C@H]3c4[nH]c5ccccc5c4CCN3C[C@@H]2CC[C@@H]1O [yohimbine hydrochloride],< 0
21,COC(=O)[C@@H]1[C@H]2C[C@H]3c4[nH]c5ccccc5c4CCN3C[C@@H]2CC[C@@H]1O [Yohimbine hydrochloride],0.611
22,C[C@]12C=CC(=O)C=C1CC[C@@H]1[C@@H]2[C@@H](O)C[C@@]2(C)[C@H]1CC[C@]2(O)C(=O)COC(=O)CCC(=O)O [prednisolone hemisuccinate],0.171
23,CCCCCCc1ccc(O)cc1O [hexylresorcinol],< 0
24,CC1(C)NC(=O)N(c2ccc([N+](=O)[O-])c(C(F)(F)F)c2)C1=O [nilutamide],2.33
